Source: article PMC8074145
These are yes or no findings as the source states them, for the method shown. Some binding calls cover weakened binding; strength is not graded here.

Chains of the proteins cited; added tags and fusions are not shown.
UniProt P09382: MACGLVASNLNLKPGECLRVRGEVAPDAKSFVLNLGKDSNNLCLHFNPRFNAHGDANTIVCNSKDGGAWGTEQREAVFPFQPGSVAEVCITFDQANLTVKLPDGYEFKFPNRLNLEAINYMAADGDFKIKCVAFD

What was measured:
[1] = molecular target: T1, Asialofetuin (UniProt P12763); assay: peptide or protein array; asialofetuin printed at 0.03, 0.1, 0.3 and 1 mg/mL on nitrocellulose-coated slides; overlaid 2 h with 20 ug/mL Gal-1 in PBS (5 mM sodium phosphate pH 7.2, 0.2 M NaCl), 0.1% Tween-20, 1 mM DTT, 20 C; detected with biotin-labelled anti-human galectin 1 and AF647-streptavidin; with or without 75 mM lactose plus 1 mg/mL asialofetuin in solution; both purified
T1 sequence: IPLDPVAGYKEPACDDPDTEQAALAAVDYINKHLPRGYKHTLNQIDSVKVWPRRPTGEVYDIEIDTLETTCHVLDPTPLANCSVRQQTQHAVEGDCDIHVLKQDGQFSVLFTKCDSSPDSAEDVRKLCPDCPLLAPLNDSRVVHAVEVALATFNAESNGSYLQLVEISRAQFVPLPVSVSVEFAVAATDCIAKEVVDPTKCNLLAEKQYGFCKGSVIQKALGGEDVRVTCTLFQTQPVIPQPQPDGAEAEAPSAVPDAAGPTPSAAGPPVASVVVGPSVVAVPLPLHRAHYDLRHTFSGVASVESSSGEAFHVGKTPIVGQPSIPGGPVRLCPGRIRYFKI

[2] = molecular target: T1, Asialofetuin; assay: peptide or protein array; asialofetuin printed on nitrocellulose-coated slides; overlaid with biotinylated in-house Gal-1; detected with fluorescently labelled streptavidin, no anti-Gal-1 antibody; both purified

Row | Substance | binding [1] | binding [2]
1 | Human galectin-1 (unlabelled, ATGen) (from UniProt P09382 1-135) | binds | –
2 | Recombinant human galectin-1, in-house preparation, biotinylated (from UniProt P09382 1-135) | – | binds
